Data as given in PubChem BioAssay AID1259254 (NCATS, 2017).
Here is an unselected part of about 59,000 reagents tested. In the full data, about 1,550 (2.6%) got an active call. 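G2 share is only a proxy for re-replication; each gene was hit by three separate siRNAs, and active genes were retested.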 Raw values are not corrected between plates. Reagents against one gene are numbered here. Not stated in the record: the amount of reagent.

- Purpose: 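Gene knock-downs that lead to re-replication, shown by excess G2 DNA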 (primary screen)
- Cells: human HCT116 colorectal cancer cells
- Reagent: single siRNA against human genes
- Duration: 3 days
- Measurement: 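Imaged Hoechst DNA stain sorts each cell into a cycle phase by DNA amount; per plate, G2 fraction set to 0% for non-targeting and 100% for GMNN siRNA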
- Scale: G2 robust z-score and G2 cells, % of GMNN control: higher = more G2 cells, more excess DNA replication; raw share of cells in G2: higher = larger share of cells with G2 DNA content
- Hit rule: 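An siRNA counts as active if its G2 robust z-score lies at least 5 MADs above the screen median; here such calls match roughly 38% of GMNN control or more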

no.	gene symbol	reagent no.	G2 robust z-score	G2 cells, % of GMNN control	raw share of cells in G2 (%)	Call
1	SETD1A	1	-0.513	-0.644	4.96	inactive
2	SETD1A	2	0.58	7.05	7.61	inactive
3	SETD1A	3	-1.35	-6.55	0.963	inactive
4	ACAT2	1	-0.116	2.15	4.79	inactive
5	ACAT2	2	2.75	22.3	13	inactive
6	ACAT2	3	5.46	41.4	18.8	active
7	NDUFA1	1	-0.0701	2.47	6.32	inactive
8	NDUFA1	2	-0.281	0.987	3.52	inactive
9	NDUFA1	3	1.63	14.4	11.2	inactive
10	SEPTIN3	1	0.886	9.2	7.74	inactive
11	SEPTIN3	2	2.56	21	13.1	inactive
12	SEPTIN3	3	3.64	28.6	19	inactive
13	CFAP251	1	0.000241	2.97	4.1	inactive
14	CFAP251	2	-0.253	1.19	4.23	inactive
15	CFAP251	3	2.4	19.9	9.05	inactive
16	FAM163B	1	-0.656	-1.65	3.01	inactive
17	FAM163B	2	-0.871	-3.16	2.14	inactive
18	FAM163B	3	-0.994	-4.03	1.97	inactive
19	SLC17A4	1	0.563	6.93	7.82	inactive
20	SLC17A4	2	1.03	10.2	8.91	inactive
21	SLC17A4	3	-0.0316	2.75	4.14	inactive
22	LMTK1	1	-0.995	-4.03	4.33	inactive
23	LMTK1	2	-0.652	-1.62	4.6	inactive
24	LMTK1	3	1.43	13	7.86	inactive
25	OR10Q1	1	2.32	19.3	10.6	inactive
26	OR10Q1	2	-0.602	-1.27	2.7	inactive
27	OR10Q1	3	-0.0438	2.66	4.04	inactive
28	PCOLCE2	1	0.454	6.16	8.96	inactive
29	PCOLCE2	2	0.9	9.3	7.27	inactive
30	PCOLCE2	3	-0.48	-0.407	3.86	inactive

Copied from above (4 entries):
no.	gene symbol	reagent no.	G2 robust z-score	G2 cells, % of GMNN control	raw share of cells in G2 (%)	Call
27	OR10Q1	3	-0.0438	2.66	4.04	inactive
28	PCOLCE2	1	0.454	6.16	8.96	inactive
29	PCOLCE2	2	0.9	9.3	7.27	inactive
30	PCOLCE2	3	-0.48	-0.407	3.86	inactive

More entries follow.
no.	gene symbol	reagent no.	G2 robust z-score	G2 cells, % of GMNN control	raw share of cells in G2 (%)	Call
31	TSSK1B	1	-0.613	-1.35	5.17	inactive
32	TSSK1B	2	0.988	9.92	8.8	inactive
33	TSSK1B	3	-0.0213	2.82	4.58	inactive
34	GUSBP14	1	-0.0998	2.27	4.57	inactive
35	GUSBP14	2	-0.868	-3.14	4.33	inactive
36	GUSBP14	3	-0.818	-2.79	5.38	inactive
37	LURAP1L	1	-0.0972	2.28	4.47	inactive
38	LURAP1L	2	1.43	13	8.08	inactive
39	LURAP1L	3	0.28	4.94	4.77	inactive
40	APLF	1	-0.852	-3.03	2.52	inactive
41	APLF	2	-0.497	-0.531	2.78	inactive
42	APLF	3	-0.442	-0.142	2.72	inactive
43	SRSF6	1	0.0622	3.4	6.83	inactive
44	SRSF6	2	1.47	13.3	9.1	inactive
45	SRSF6	3	-0.0567	2.57	4.81	inactive
46	PLPP2	1	-1.05	-4.42	3.36	inactive
47	PLPP2	2	0.683	7.77	6.64	inactive
48	PLPP2	3	-0.378	0.31	3.59	inactive
49	ERGIC2	1	-0.701	-1.97	2.9	inactive
50	ERGIC2	2	1.46	13.2	9.85	inactive
51	ERGIC2	3	0.98	9.87	6.45	inactive
52	DUSP19	1	-0.632	-1.48	4.31	inactive
53	DUSP19	2	-0.055	2.58	5.08	inactive
54	DUSP19	3	0.418	5.91	5.28	inactive
55	CENPF	1	0.577	7.03	8.6	inactive
56	CENPF	2	-0.681	-1.82	3.42	inactive
57	CENPF	3	-0.0444	2.65	4.56	inactive
58	HMGN3	1	-0.5	-0.551	4.29	inactive
59	HMGN3	2	0.757	8.29	7.68	inactive
60	HMGN3	3	0.302	5.09	7.05	inactive
61	LOXL4	1	-1.17	-5.29	2.28	inactive
62	LOXL4	2	-1.27	-5.96	2.58	inactive
63	LOXL4	3	-0.96	-3.79	3.85	inactive
64	ABCB11	1	0.268	4.85	6.74	inactive
65	ABCB11	2	-0.447	-0.175	4.64	inactive
66	ABCB11	3	-1.12	-4.94	3.53	inactive
67	RYR1	1	2.73	22.2	13.4	inactive
68	RYR1	2	-0.201	1.55	5.31	inactive
69	RYR1	3	0.273	4.88	6.28	inactive
